The other results are listed elsewhere or left out. The main result of the screen is listed elsewhere. These columns were measured beside it and carry no call. The list favours compounds with an active or inconclusive main result. Potencies come from curve fits of mixed quality, noted in brackets.
Test: qHTS Assay for Lipid Storage Modulators in Drosophila S3 Cells;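 as to cell number change: cells counted by Cell Tracker Red CMTPX staining in the red channel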
Settings: BODIPY lipid droplet fluorescence, 18-24 h; for cell number change: measured here: cell count max response, cells fed with added oleic acid
Outline: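 Drosophila S3 cells got compounds at several concentrations plus oleic acid (400 uM solution). Laser-scanning cytometry with 488 nm excitation read lipid droplets at 500-530 nm and cells at 575-640 nm. Percent activity was relative to 20 uM Triacsin C.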

[1] = measured here: lipid fluorescence (Fed channel) AC50, cells fed with added oleic acid
[2] = measured here: cell number channel AC50, cells fed with added oleic acid

CCOc1cc2[nH]c(=S)n(Cc3ccc(C(=O)O)cc3)c(=O)c2cc1OCC
cell number change: -12.6%
AC50 [1]: 29.1 µM [falling, single point]

CCCCCn1c(=O)[nH]c2cc(C(=O)NCc3ccc4c(c3)OCO4)ccc2c1=O
cell number change: 18.4%
AC50 [1]: 5.17 µM [rising, full curve]

Cc1cc(=O)oc2c3c(cc(OCC(=O)NCCCn4ccnc4)c12)OC(C)(C)CC3
cell number change: 16.9%
AC50 [1]: 3.26 µM [falling, full curve]

Nc1ccc(SCC(=O)Nc2cccc([N+](=O)[O-])c2)cc1
cell number change: 6.65%
AC50 [2]: 6.51 µM [falling, partial curve, poor fit]
AC50 [1]: 6.51 µM [falling, partial curve, poor fit]

Cc1ccc(S(=O)(=O)NC(CC(=O)O)c2ccco2)cc1 (configuration not stated)
cell number change: 0.424%
AC50 [1]: 1.46 µM [falling, partial curve]

Cc1ccc(CN2CCN(/N=C/c3ccc(C)s3)CC2)c(C)c1
cell number change: 18.3%
AC50 [2]: 0.00651 µM [falling, full curve, poor fit]
AC50 [1]: 29.1 µM [falling, single point]

Nc1nnc(-c2ccccc2Cl)s1
cell number change: 48.6%
AC50 [2]: 9.2 µM [rising, partial curve]
AC50 [1]: 29.1 µM [rising, partial curve]

O/N=C(/CCc1ccccc1)c1ccc2c(c1)OCCO2
cell number change: -7.01%
AC50 [1]: 0.164 µM [falling, full curve, poor fit]

Cc1nc(Nc2cccc(C(F)(F)F)c2)nc2c1C(=O)CC(C)C2 (configuration not stated)
cell number change: 107%
AC50 [2]: 20.6 µM [rising, single point]

CC(=O)Nc1ccc(-c2csc(NC=C3C(=O)OC(C)(C)OC3=O)n2)cc1
cell number change: 45.2%
AC50 [2]: 14.6 µM [rising, partial curve, poor fit]
AC50 [1]: 25.9 µM [rising, partial curve, poor fit]

CCOC(=O)Nc1ccc2c(c1)N(C(=O)N(C)C)c1ccccc1CC2
cell number change: 15.3%
AC50 [1]: 3.26 µM [rising, single point]

CCn1cc(S(=O)(=O)Nc2ccc(Cl)cc2F)cn1
cell number change: 18.4%
AC50 [1]: 0.146 µM [falling, full curve, poor fit]

O=c1[nH]c2cc(C(F)(F)F)ccc2n1-c1cc(C(F)(F)F)ccc1O
cell number change: -47.2%
AC50 [2]: 18.4 µM [falling, partial curve]
AC50 [1]: 18.4 µM [falling, partial curve]

Cc1cccc(N2CCN(C(=O)c3cn(C)c(=O)c4c3c3ccccc3n4C)CC2)c1C
cell number change: -58.9%
AC50 [2]: 29.1 µM [falling, single point]

COc1ccc(C(=O)NCc2nnc(SCC(=O)N3CCOCC3)o2)cc1
cell number change: -32.7%
AC50 [1]: 29.1 µM [falling, single point]

CCC1SC2=NC(C)=C(C(=O)OCCOC)C(/C=C/c3ccccc3OC)N2C1=O (configuration not stated)
cell number change: -1.13%
AC50 [1]: 1.03 µM [falling, full curve, poor fit]

COC(=O)c1sc2cc([N+](=O)[O-])cc(SCC(C)C)c2c1N
cell number change: -67.6%
AC50 [2]: 11.6 µM [falling, partial curve]
AC50 [1]: 3.26 µM [falling, full curve]

CC(C)(C)c1ccc(/C=N/OCC(=O)NCc2ccc(F)cc2)cc1
cell number change: -64.6%
AC50 [2]: 11.6 µM [falling, partial curve]
AC50 [1]: 9.2 µM [falling, partial curve]

C=CCNC(=O)Nc1ccc(F)cc1F
AC50 [1]: 6.51 µM [falling, partial curve]

CC(=O)Nc1ccc(NC(=O)C(C)OC(=O)c2ccc(N(C)C)cc2)cc1 (configuration not stated)
cell number change: 21%
AC50 [2]: 0.82 µM [rising, full curve]
AC50 [1]: 6.51 µM [falling, single point]

O=C(NCCCN1CCOCC1)c1cc(S(=O)(=O)N2CCN(c3ccccc3)CC2)ccc1Cl
cell number change: 27.7%

C/C(CC(=O)Nc1cccc2c1CCCC2)=N\NC=O
cell number change: -10.7%
AC50 [2]: 0.164 µM [falling, full curve]
AC50 [1]: 0.103 µM [falling, full curve]

CC(C)=CC(=O)OCC(=O)Nc1ncc(Cl)c(C)c1Cl
cell number change: 24.2%
AC50 [1]: 16.4 µM [rising, partial curve, poor fit]

Cc1cccn2c(=O)c3cc(C#N)c(=O)n(-c4c(C)n(C)n(-c5ccccc5)c4=O)c3nc12
cell number change: 7.64%

O=C(COc1ccc(Cl)cc1Cl)N(C1CCCCC1)C1CCS(=O)(=O)C1 (configuration not stated)
cell number change: -38.3%
AC50 [2]: 9.2 µM [falling, partial curve]

O=C(Nc1ccc2c(c1)OCCO2)c1coc2ccccc2c1=O
cell number change: 15.3%
AC50 [1]: 29.1 µM [rising, single point]

Cc1[nH]c2ccc(C(=O)N3CCN(C)CC3)cc2c1C
cell number change: 18.3%

COc1ccc(C2=CSC3=NCCN23)cc1F
cell number change: 33.1%
AC50 [2]: 9.2 µM [rising, partial curve]

Cc1cccc(N(C(=O)Cc2cccs2)C(C(=O)NCc2ccco2)c2ccncc2)c1 (configuration not stated)
cell number change: -18.9%
AC50 [1]: 14.6 µM [falling, partial curve]

COc1ccc(C(=O)CC(=O)c2ccccc2O)cc1
cell number change: -25.2%
AC50 [1]: 23.1 µM [falling, single point]

CCNc1nc(NCC)n2c(SCC(=O)Nc3ccc(NC(C)=O)cc3)nnc2n1
cell number change: -21.3%
AC50 [1]: 3.26 µM [falling, single point]

COc1ccc(-n2c(=O)c3c(C)c(C)sc3n(Cc3ccc(F)cc3)c2=O)c(OC)c1
cell number change: -12.3%
AC50 [1]: 2.91 µM [falling, partial curve]

CC(=O)c1c(C)c(C)c2n1CCn1c(C)ccc1-2
cell number change: 11.3%
AC50 [1]: 0.461 µM [rising, full curve]

CCOC(=O)c1ccccc1NC(=O)COC(=O)C(Cc1c[nH]c2ccccc12)NC(C)=O (configuration not stated)
cell number change: -1.39%

O=C(OCCCCOC(=O)c1ccccc1)c1ccccc1
cell number change: 22.4%
AC50 [1]: 29.1 µM [rising, single point]

Cc1c(C(=O)NCc2ccc(S(N)(=O)=O)cc2)oc2ccc(Cl)cc12
cell number change: -33.2%
AC50 [2]: 3.98 µM [falling, full curve, poor fit]
AC50 [1]: 11.2 µM [falling, partial curve]

— PubChem BioAssay AID2685 (National Center for Advancing Translational Sciences (NCATS), 2010)
